Values joined by “and” are separate entries in the source; they are usually repeats but may differ in a detail not shown here. Identical values can stand only once. The source gives many values for each of these; only a part stands here.
Test system: RPE1 cells
Experiment: Cell growth assay (IncuCyte confluence over 72 h)
Assay type: cell-based
Experimental: Cell growth assay: Cell confluence (phase) from RPE1 (hTERT RPE-1, ATCC CLR_4000) or U2OS (ATCC, HTB-96) cell lines were monitored over time with the IncuCyte S3 (Sartiorius, Germany) in 384-well plates in 50 ul DMEM media, supplemented with 10% Fetal Bovine Serum (FBS) 1% penicillin/Streptomycin and incubated 24 h before treatment. Experiment was performed as described in Cano-Franco et al.. 50 μl of media containing either 2× final concentration of indicated compounds in or control compounds (final conc.: 0.1% DMSO, 250 nM Torin1, 200 ng/mL Bafilomycin) were added and images were taken every two hours over 72 h. Cell confluence is represented as % of area covered by cells. Each data point represents the average ratio or confluence obtained from three individual wells of the plate.

SMILES: O=c1cc(-c2ccccc2)c2c(O)cc(O)cc2o1 [compound 2]
- RPE1 cell growth (100 nM, 10 h, listed as AN2): 21
- RPE1 cell growth (100 nM, 16 h, listed as AN2): 40 and 20 and 26
- RPE1 cell growth (100 nM, 22 h, listed as AN2): 47 and 24 and 30
- RPE1 cell growth (100 nM, 36 h, listed as AN2): 81 and 42 and 49
- RPE1 cell growth (100 nM, 38 h, listed as AN2): 85 and 46 and 52
- RPE1 cell growth (100 nM, 40 h, listed as AN2): 87 and 48 and 55
- RPE1 cell growth (100 nM, 44 h, listed as AN2): 93 and 57 and 63
- RPE1 cell growth (100 nM, 46 h, listed as AN2): 96 and 61 and 68
- RPE1 cell growth (100 nM, 48 h, listed as AN2): 97 and 64 and 73
- RPE1 cell growth (100 nM, 50 h, listed as AN2): 98 and 69 and 76
- RPE1 cell growth (100 nM, 52 h, listed as AN2): 99 and 74 and 79
- RPE1 cell growth (100 nM, 54 h, listed as AN2): 99 and 79 and 85
- RPE1 cell growth (100 nM, 56 h, listed as AN2): 100 and 81 and 82
- RPE1 cell growth (100 nM, 58 h, listed as AN2): 100 and 86 and 91
- RPE1 cell growth (100 nM, 60 h, listed as AN2): 100 and 91 and 94
- RPE1 cell growth (100 nM, 62 h, listed as AN2): 100 and 94 and 96
- RPE1 cell growth (100 nM, 64 h, listed as AN2): 100 and 96 and 97
- RPE1 cell growth (100 nM, 66 h, listed as AN2): 100 and 98 and 99
- RPE1 cell growth (100 nM, 68 h, listed as AN2): 100 and 99
- RPE1 cell growth (100 nM, 70 h, listed as AN2): 100 and 99
- RPE1 cell growth (100 nM, 72 h, listed as AN2): 100 and 99
- RPE1 cell growth (500 nM, 10 h, listed as AN2): 36 and 22 and 26
- RPE1 cell growth (500 nM, 12 h, listed as AN2): 39 and 24 and 27
- RPE1 cell growth (500 nM, 14 h, listed as AN2): 41 and 26 and 29
- RPE1 cell growth (500 nM, 16 h, listed as AN2): 42 and 27 and 30
- RPE1 cell growth (500 nM, 18 h, listed as AN2): 46 and 28 and 31
- RPE1 cell growth (500 nM, 20 h, listed as AN2): 46 and 29 and 35
- RPE1 cell growth (500 nM, 22 h, listed as AN2): 50 and 32 and 37
- RPE1 cell growth (500 nM, 24 h, listed as AN2): 58 and 34 and 39
- RPE1 cell growth (500 nM, 26 h, listed as AN2): 60 and 38 and 42
- RPE1 cell growth (500 nM, 28 h, listed as AN2): 65 and 39 and 43
- RPE1 cell growth (500 nM, 30 h, listed as AN2): 71 and 43 and 47
- RPE1 cell growth (500 nM, 32 h, listed as AN2): 75 and 47 and 50
- RPE1 cell growth (500 nM, 34 h, listed as AN2): 78 and 50 and 55
- RPE1 cell growth (500 nM, 36 h, listed as AN2): 80 and 52 and 58
- RPE1 cell growth (500 nM, 38 h, listed as AN2): 85 and 56 and 62
- RPE1 cell growth (500 nM, 40 h, listed as AN2): 88 and 60 and 65
- RPE1 cell growth (500 nM, 42 h, listed as AN2): 90 and 63 and 68
- RPE1 cell growth (500 nM, 44 h, listed as AN2): 93 and 71 and 73
- RPE1 cell growth (500 nM, 46 h, listed as AN2): 95 and 73 and 78
- RPE1 cell growth (500 nM, 48 h, listed as AN2): 97 and 78 and 82
- RPE1 cell growth (500 nM, 50 h, listed as AN2): 98 and 83 and 85
- RPE1 cell growth (500 nM, 52 h, listed as AN2): 99 and 88
- RPE1 cell growth (500 nM, 54 h, listed as AN2): 99 and 92
- RPE1 cell growth (500 nM, 56 h, listed as AN2): 100 and 94 and 91
- RPE1 cell growth (500 nM, 58 h, listed as AN2): 100 and 96
- RPE1 cell growth (500 nM, 60 h, listed as AN2): 100 and 98 and 97
- RPE1 cell growth (500 nM, 62 h, listed as AN2): 100 and 99
- RPE1 cell growth (500 nM, 64 h, listed as AN2): 100 and 99
- RPE1 cell growth (500 nM, 66 h, listed as AN2): 100 and 99
- RPE1 cell growth (500 nM, 68 h): 100
- RPE1 cell growth (500 nM, 70 h): 100
- RPE1 cell growth (500 nM, 72 h): 100
- RPE1 cell growth (1 uM, 10 h, listed as AN2): 35 and 28
- RPE1 cell growth (1 uM, 12 h, listed as AN2): 26 and 38 and 30
- RPE1 cell growth (1 uM, 14 h, listed as AN2): 28 and 41 and 31
- RPE1 cell growth (1 uM, 16 h, listed as AN2): 30 and 42 and 35
- RPE1 cell growth (1 uM, 18 h, listed as AN2): 31 and 45 and 36
- RPE1 cell growth (1 uM, 20 h, listed as AN2): 33 and 45 and 36
- RPE1 cell growth (1 uM, 22 h, listed as AN2): 35 and 48 and 41
- RPE1 cell growth (1 uM, 24 h, listed as AN2): 37 and 56 and 44
- RPE1 cell growth (1 uM, 26 h, listed as AN2): 40 and 58 and 47
- RPE1 cell growth (1 uM, 28 h, listed as AN2): 41 and 63 and 48
- RPE1 cell growth (1 uM, 30 h, listed as AN2): 45 and 69 and 52
- RPE1 cell growth (1 uM, 32 h, listed as AN2): 50 and 73 and 56
- RPE1 cell growth (1 uM, 34 h, listed as AN2): 53 and 78 and 60
- RPE1 cell growth (1 uM, 36 h, listed as AN2): 58 and 80 and 63
- RPE1 cell growth (1 uM, 38 h, listed as AN2): 61 and 83 and 68
- RPE1 cell growth (1 uM, 40 h, listed as AN2): 65 and 87 and 72
- RPE1 cell growth (1 uM, 42 h, listed as AN2): 70 and 89 and 75
- RPE1 cell growth (1 uM, 44 h, listed as AN2): 74 and 93 and 81
- RPE1 cell growth (1 uM, 46 h, listed as AN2): 79 and 94 and 84
- RPE1 cell growth (1 uM, 48 h, listed as AN2): 83 and 97 and 88
- RPE1 cell growth (1 uM, 50 h, listed as AN2): 87 and 97 and 91
- RPE1 cell growth (1 uM, 52 h, listed as AN2): 89 and 98 and 95
- RPE1 cell growth (1 uM, 54 h, listed as AN2): 93 and 99 and 97
- RPE1 cell growth (1 uM, 56 h, listed as AN2): 96 and 99 and 98
- RPE1 cell growth (1 uM, 58 h, listed as AN2): 97 and 100 and 99
- RPE1 cell growth (1 uM, 60 h, listed as AN2): 98 and 100
- RPE1 cell growth (1 uM, 62 h, listed as AN2): 99 and 100
- RPE1 cell growth (1 uM, 64 h, listed as AN2): 99 and 100
- RPE1 cell growth (1 uM, 66 h, listed as AN2): 99 and 100
- RPE1 cell growth (1 uM, 68 h): 100
- RPE1 cell growth (1 uM, 70 h): 100
- RPE1 cell growth (1 uM, 72 h): 100
- RPE1 cell growth (3 uM, 12 h, listed as AN2): 42 and 29 and 30
- RPE1 cell growth (3 uM, 14 h, listed as AN2): 45 and 29 and 32
- RPE1 cell growth (3 uM, 16 h, listed as AN2): 48 and 32 and 35
- RPE1 cell growth (3 uM, 18 h, listed as AN2): 51 and 33 and 36

Reference: paper PMC11589570, “Critical assessment of LC3/GABARAP ligands used for degrader development and ligandability of LC3/GABARAP binding pockets” (Nature Communications, 2024)
